Values quoted from earlier work as cited in patent publication US20060034941A1, “Organ preconditioning, arrest, protection, preservation and recovery” (priority 2002, published 2006).
For at least one compound, name, drawing or mass did not settle the structure.

Test system: in vivo rabbit model
Conditions: reduced MAP similar to CCPA; cited from earlier work

## CCOC(=O)C1=C(C)NC(C)=C(C(=O)OC)C1c1cccc(Cl)c1Cl (stereo not shown) [felodipine]
  effect on infarct size: did not change infarct size
